The exact form of at least one protein or probe is not confirmed. For some assays here: The comparison behind a weaker result is the experiment's own reference, which may not be listed here. For some assays here: At least one verdict was read from the data and is not stated in words by the source.
How the values were obtained:
MinD (Escherichia coli) = MinD (Escherichia coli) (UniProt P0AEZ3); assay: SPR; conditions: apparent Kd from kon/koff; SPR: buffer with 5% glycerol, 5 mM MgCl2; recombinant protein; protein details: His; label: biotin (on F strand)
[1] = molecular target: MinDΔ10 (Escherichia coli) (UniProt P0AEZ3); assay: SPR; conditions: SPR: buffer with 5% glycerol, 5 mM MgCl2; recombinant protein; protein details: His; label: biotin (on F strand)

For “GAATCAGCGCCATTTATCACAGAATAGACT (double strand) [P1-prom-1-Biotin SPR duplex]”, the Kd (MinD (Escherichia coli)) was 600 nM and the binding result [1] was “binds more weakly”.

From PMC3792344
